Values joined by “and” are separate entries in the source; they are usually repeats but may differ in a detail not shown here. Equal values may be shown once.
Columns and labels:
Pancreas cells = assay: Partek cluster analysis of stage specific genes (hESC, SOX17, PDX1, Pancreas), fold change and T-test; set-up: species or system human; settings: for PDX1/PANC fold change / SOX17/PANC fold change: Table 19; for PDX1/PANC fold change: expression in PDX1-GFP cells vs Pancreas cells; for SOX17/PANC fold change: expression in SOX17-GFP cells vs Pancreas cells
PDX1-GFP cells [1] = assay: Affymetrix Human Gene ST1.0 microarray, PDX1-GFP cells vs SOX17-GFP cells
PDX1-GFP cells [2] = assay: Affymetrix Human Gene ST1.0 microarray, PDX1-GFP cells vs genetically unmodified hESCs; settings: non-membranal genes down-regulated; expression in PDX1-GFP cells vs genetically unmodified HESCs; (−) = downregulated
[3] = non-membranal genes downregulated in PDX1 cells as compared to SOX17 cells, log 2 fold change in expression, PDX1-GFP cells vs SOX17-GFP cells, (−) = downregulated in PDX1-GFP cells
[4] = Table 13, SOX17 specific cell surface genes, expression in SOX17-GFP cells vs undifferentiated hESCs

| Substance | PDX1/PANC fold change (Pancreas cells) | SOX17/PANC fold change (Pancreas cells) | SOX17/HESC fold change (Pancreas cells; change in expression level of the gene between SOX17-GFP cells and undifferentiated hESCs, Affymetrix probe set) | Log 2 fold change [PDX-SOX17] (PDX1-GFP cells [1]; [3]) | Log 2 fold change [PDX1-HESC] (PDX1-GFP cells [2]) | Log 2 fold change [PDX-SOX17] (PDX1-GFP cells [1]; expression level of the gene in PDX1-GFP cells as compared to SOX17-GFP cells, non-membranal genes upregulated in PDX1 cells, Affymetrix probe set) | SOX17/HESC fold change (Pancreas cells; [4]) |
| --- | --- | --- | --- | --- | --- | --- | --- |
| DKK1 | 9.73 | 73.19 | 12.95 | −5.03 | – | – | – |
| NODAL | – | – | – | −2.26 | −4.21 | – | – |
| NPPB | – | – | – | −3.32 | −2.35 | – | – |
| FGF2 | – | – | – | – | – | 3.44 | – |
| BMP2 | – | – | – | −4.43 | – | – | 3.36 |
| APOA1 | 2.20 and 2.21 | 8.83 and 8.49 | – | −2.94 and −2.89 | – | – | 7.79 and 7.44 |

Reference: US20150050728A1, “Identification Of Novel Cell Surface Markers For Pancreatic Progenitor Cells And Definite Endodermal Cells” (priority 2010, published 2015)
